Experimental data taken from publication PMC5497066.
These are yes or no findings as the source states them, for the method shown. Binding can be weak; no strength is given.

By UniProt entry, the sequences of proteins in these tests, tags left out. Where a name states a change or a piece, a line headed by the entry shows the natural chain unless it says otherwise.
UniProt P0A6F5: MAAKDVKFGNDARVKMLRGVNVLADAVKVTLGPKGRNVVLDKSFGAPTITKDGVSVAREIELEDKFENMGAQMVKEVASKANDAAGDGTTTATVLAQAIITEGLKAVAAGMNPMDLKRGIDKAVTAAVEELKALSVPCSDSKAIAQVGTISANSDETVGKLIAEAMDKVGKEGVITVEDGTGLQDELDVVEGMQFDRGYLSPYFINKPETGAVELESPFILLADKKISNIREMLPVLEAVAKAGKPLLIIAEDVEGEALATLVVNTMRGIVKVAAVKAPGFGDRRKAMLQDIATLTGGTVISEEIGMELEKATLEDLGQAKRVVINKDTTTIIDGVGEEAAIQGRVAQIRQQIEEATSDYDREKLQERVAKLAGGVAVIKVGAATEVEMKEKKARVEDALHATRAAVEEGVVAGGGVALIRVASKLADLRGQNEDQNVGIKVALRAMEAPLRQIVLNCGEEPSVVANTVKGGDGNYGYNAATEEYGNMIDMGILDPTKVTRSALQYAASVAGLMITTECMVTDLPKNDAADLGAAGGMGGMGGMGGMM

Experiments:
[1] = molecular target: asymmetric Δ526-GroES-ADP complex (E. coli); test: protease protection (encapsulation); denatured PepQ-24F (100 nM) bound to wild-type or Δ526 GroEL-GroES-ADP bullets (200 nM) or full-length or Δ526 single-ring GroEL (300 nM) with GroES (600 nM); single turnover with ATP (2 mM), quenched after 10 s; unencapsulated PepQ digested with Proteinase K; SDS-PAGE, fluorescein scan; both purified
[2] = molecular target: single-ring mutant of GroEL, SR1 (E. coli) (UniProt P0A6F5); test: as above
[3] = molecular target: C-terminal truncation mutant of tetradecamer GroEL, Δ526 (E. coli) (UniProt P0A6F5); test: cryo-EM structure; acid-urea denatured PepQ (7 μM final) titrated into GroEL or Δ526 (8 μM tetradecamers) in TKM buffer, no nucleotide, room temperature 5 min; asymmetric 3D classification and refinement; both purified

binding [1] | binding [2] | binding [3] | Binder
binds | binds | – | PepQ-24F (enzyme, UniProt P21165 1-443, fluorescein (5-iodoacetamidofluorescein) on the cysteine at position 24) MESLASLYKNHIATLQERTRDALCRFKLDALLIHSGELFNVFLDDHPYPFKVNPQFKAWVPVTQVPNCWLLVDGVNKPKLWFYLPVDYWHNVEPLPTSFWTEDVEVIALPKADGIGSLLPAARGNIGYIGPVPERALQLGIEASNINPKGVIDYLHYYRSFKTEYELACMREAQKMAVNGHRAAEEAFRSGMSEFDINIAYLTATGHRDTDVPYSNIVALNEHAAVLHYTKLDHQAPEEMRSFLLDAGAEYNGYAADLTRTWSAKSDNDYAQLVKDVNDEQLALIATMKAGVSYVDYHIQFHQRIAKLLRKHQIITDMSEEAMVENDLTGPFMPHGIGHPLGLQVHDVAGFMQDDSGTHLAAPAKYPYLRCTRILQPGMVLTIEPGIYFIESLLAPWREGQFSKHFNWQKIEALKPFGGIRIEDNVVIHENNVENMTRDLKLA
– | – | binds | wild type E. coli PepQ (enzyme, UniProt P21165 1-443) MESLASLYKNHIATLQERTRDALARFKLDALLIHSGELFNVFLDDHPYPFKVNPQFKAWVPVTQVPNCWLLVDGVNKPKLWFYLPVDYWHNVEPLPTSFWTEDVEVIALPKADGIGSLLPAARGNIGYIGPVPERALQLGIEASNINPKGVIDYLHYYRSFKTEYELACMREAQKMAVNGHRAAEEAFRSGMSEFDINIAYLTATGHRDTDVPYSNIVALNEHAAVLHYTKLDHQAPEEMRSFLLDAGAEYNGYAADLTRTWSAKSDNDYAQLVKDVNDEQLALIATMKAGVSYVDYHIQFHQRIAKLLRKHQIITDMSEEAMVENDLTGPFMPHGIGHPLGLQVHDVAGFMQDDSGTHLAAPAKYPYLRCTRILQPGMVLTIEPGIYFIESLLAPWREGQFSKHFNWQKIEALKPFGGIRIEDNVVIHENNVENMTRDLKLA
